Assay results from patent US20240141291A1, “FUNCTIONAL BRAIN REGION-SPECIFIC NEURAL SPHEROIDS AND METHODS OF USE” (THE UNITED STATES OF AMERICA, AS REPRESENTED BY THE …, priority 2021, published 2024).
Entries after “also recorded” stand apart in the source; their conditions may differ. For at least one compound, name, drawing or mass did not settle the structure.

Columns and labels:
Type in all cases: cell-based, human
[1] = system: PFC-like spheroids; assay: FLIPR calcium activity profiling, compound addition (Examples 1-2); conditions: FLIPR recordings 1-, 30-, 70-min after compound (t1, t30, t70)
Description: (§1) To examine neuronal activity changes as a response to compound treatment, calcium activity was assessed using a Fluorescent Imaging Plate Reader (FLIPR) Penta (Molecular Devices). FLIPR Calcium 6 Assay kits were purchased from Molecular Devices (PN: R8190). On day of activity profiling, 96-well or 384-well ULA round bottom (black sides, clear bottom) plates containing spheroids were removed from incubator. Fresh FLIPR Calcium 6 dye was prepared by diluting each vial in 10 ml of freshly prepared, phenol-free complete spheroid maturation media and vortexed for 2 minutes. […] After 2-hours, plates were removed and kept at room temperature for 10 minutes, then imaged and calcium activity read using the Molecular Devices FLIPR Penta High-Throughput Cellular Screening System. […] Fluorescent image reads were taken every 0.6 seconds for a total of 1000 reads over a total run time of 10 minutes. […]
(§2) The FLIPR software ScreenWorks PeakPro 2.0 was used for the initial analysis of calcium activity using automated peak detection settings. […] To assess variability of these peak parameters, percent coefficients of variance (CV) were calculated by dividing the standard deviation/mean and multiplying by 100 for each designer spheroid type, and those with % CV's […] 20% were removed from future analysis. […]

[2] = system: VTA-like spheroids; assay: as above; conditions: FLIPR recordings 1-, 30-, 70-min after compound (t1, t30, t70)
Description: as §1, §2

[3] = system: VTA-like spheroids; assay: FLIPR calcium activity with Cal6 dye, control compounds / DAMGO (Example 3); conditions: recordings 1-, 30-, 60-min after treatment
Description: (§3) Viruses and dyes: To assess calcium activity, the calcium dye, Cal6 (Molecular Devices), and genetically encoded calcium indicator, GCaMP6f (Addgene, cat #100836-AAV9) were used. Cal6 was used according to manufacturer's instructions and 10 mL of maintenance media was added to each vial. Two hours before activity was recorded, half of the spheroid media was exchanged for media with Cal6. The plates were covered in foil and placed in the incubator at 37° C. during the 2-hour (hr) incubation period. Since all viruses used were adeno-associated viruses (AAV), they were added to the media on day 7 to allow for 2-weeks expression prior to recording or testing. […]
(§4) Fluorescent Imaging plate Reader (FLIPR): The FLIPR Penta (Molecular Devices) was used to assess calcium fluorescence across the 384-well plate simultaneously and to observe changes after treatment with compounds. The evening before calcium activity was measured, plates were sealed with parafilm and centrifuged at 1485×g for 2-min to get spheroids to the bottom of the well in a centered position. On the day of recording, the plate used for recording was placed in the read plate position inside of the FLIPR following the 2-hour Cal6 incubation at 37° C. […] Fluorescent image reads were taken every 0.6 seconds for all plates, with exposure time of 0.03 and 50% excitation intensity. […]

[4] = system: PFC-like spheroids; assay: FLIPR calcium activity with Cal6 dye, control compounds / DAMGO / AD compounds (Example 3); conditions: recordings 1-, 30-, 60-min after treatment
Description: as §3, §4

## CN1CCc2cc3c(cc2[C@H]1[C@@H]1OC(=O)c2c1ccc1c2OCO1)OCO3 [Bicuculline]
[1]
  effect on calcium activity peak parameters compared to DMSO controls: increased PkA 1- and 30-min after treatment; also recorded: had no effect on PkCt, though a reduction in PpM and increases in PkSp were observed at t1 and t30; also recorded: PkDt was increased by bicuculline at t1 and 30 but not t70, while peak decay slope was increased only at t30
[2]
  effect on calcium activity peak parameters compared to DMSO controls: increased PkCt, PpM, and decay slope while reducing PkSp, an effect that persisted through the t70 recording; also recorded: increased PkA at t1
[3]
  functional response (calcium activity peak parameters) to control compound: increases in peak count, rate, and amplitude with decreases in peak rise and decay time
[4]
  functional response (calcium activity peak parameters) to control compound: peak count was reduced while peak amplitude and peak width was increased
